Measured values published in article PMC6946801.
These are yes or no findings as the source states them, for the method shown. In cells and extracts the contact can be indirect. Some entries that bind do so weakly or less than the wild type. Sequences can lack the tags named with a protein.

Target: T1, Sty1-GFP genomic fusion (S. pombe) (UniProt Q09892)
T1 sequence: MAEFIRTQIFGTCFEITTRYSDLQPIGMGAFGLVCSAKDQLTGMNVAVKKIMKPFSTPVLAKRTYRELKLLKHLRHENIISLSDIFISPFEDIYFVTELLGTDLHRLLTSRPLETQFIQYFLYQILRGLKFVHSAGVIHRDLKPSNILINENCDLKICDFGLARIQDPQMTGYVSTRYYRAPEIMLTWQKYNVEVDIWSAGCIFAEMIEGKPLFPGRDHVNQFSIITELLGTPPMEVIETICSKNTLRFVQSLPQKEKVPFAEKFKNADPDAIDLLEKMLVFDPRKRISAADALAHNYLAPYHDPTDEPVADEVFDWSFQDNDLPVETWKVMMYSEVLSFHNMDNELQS
Experiment: co-IP; whole-cell extracts (3 mg) of vegetatively growing S. pombe in 20 mM Tris-HCl pH 8.0, 2 mM EDTA, 100 mM NaCl, 0.5% NP-40; Dynabeads protein G with polyclonal anti-GFP antibody, 2 h at 4°C; blots with anti-GFP or anti-HA

B1: Rnc1-3HA genomic fusion (protein, UniProt O74919 1-398)
chain: MAYNHFSIPKNIEEKENSFFDVTFQDEPDETTSTATGIAKVSIPTPKPSTPLSTLTNGSTIQQSMTNQPEPTSQVPPISAKPPMDDATYATQQLTLRALLSTREAGIIIGKAGKNVAELRSTTNVKAGVTKAVPNVHDRVLTISGPLENVVRAYRFIIDIFAKNSTNPDGTPSDANTPRKLRLLIAHSLMGSIIGRNGLRIKLIQDKCSCRMIASKDMLPQSTERTVEIHGTVDNLHAAIWEIGKCLIDDWERGAGTVFYNPVSRLTQPLPSLASTASPQQVSPPAAPSTTSGEAIPENFVSYGAQVFPATQMPFLQQPKVTQNISIPADMVGCIIGRGGSKISEIRRTSGSKISIAKEPHDETGERMFTITGTHEENEKALFLLYQQLEMEKDRRSH
  binding: binds
